Data published in patent US20250108076A1, “METHODS FOR TREATMENT OF NON-ALCOHOLIC FATTY LIVER DISEASES (NAFLD) USING ADVANCED MICROBIOME THERAPEUTICS” (Danmarks Tekniske Universitet, priority 2022, published 2025).
At least one compound was matched to its structure with a doubt left.

Key:
[1] = test system: fat content in liver; assay: MRI imaging of liver fat content (fat index); assay type: in vivo; details: ALIOS mice, mean
[2] = Body weight loss during 7-week lifestyle modification and probiotic intervention; details: ALIOS mice; after 7 weeks of lifestyle modification intervention; mean

In the case of `CCCCCCCCCCCCCCCC(=O)N[C@@H](CCC(=O)NCCCC[C@H](NC(=O)[C@H](C)NC(=O)[C@H](C)NC(=O)[C@H](CCC(N)=O)NC(=O)CNC(=O)[C@H](CCC(=O)O)NC(=O)[C@H](CC(C)C)NC(=O)[C@H](Cc1ccc(O)cc1)NC(=O)[C@H](CO)NC(=O)[C@H](CO)NC(=O)[C@@H](NC(=O)[C@H](CC(=O)O)NC(=O)[C@H](CO)NC(=O)[C@@H](NC(=O)[C@H](Cc1ccccc1)NC(=O)[C@@H](NC(=O)CNC(=O)[C@H](CCC(=O)O)NC(=O)[C@H](C)NC(=O)[C@@H](N)Cc1cnc[nH]1)[C@@H](C)O)[C@@H](C)O)C(C)C)C(=O)N[C@@H](CCC(=O)O)C(=O)N[C@@H](Cc1ccccc1)C(=O)N[C@H](C(=O)N[C@@H](C)C(=O)N[C@@H](Cc1c[nH]c2ccccc12)C(=O)N[C@@H](CC(C)C)C(=O)N[C@H](C(=O)N[C@@H](CCCNC(=N)N)C(=O)NCC(=O)N[C@@H](CCCNC(=N)N)C(=O)NCC(=O)O)C(C)C)[C@@H](C)CC)C(=O)O` [Liraglutide], the “MRI fat index (Week 7)” value ([1]; after 7 weeks of lifestyle modification intervention) is reported as 4.702, the “MRI fat index (Week 0)” value ([1]; before the intervention (baseline), ratio of fat to water content in liver) is reported as 9.543 and the “Decrease in MRI fat index” value ([1]; difference between final and initial MRI fat index over 7 weeks) is reported as 4.842. The “Weight loss” value [2] was 0.38 g.
